Chains of the proteins cited; added tags and fusions are not shown. Lines headed by an entry give the natural chain unless they say otherwise; changes in a name come on top.
UniProt Q388B3: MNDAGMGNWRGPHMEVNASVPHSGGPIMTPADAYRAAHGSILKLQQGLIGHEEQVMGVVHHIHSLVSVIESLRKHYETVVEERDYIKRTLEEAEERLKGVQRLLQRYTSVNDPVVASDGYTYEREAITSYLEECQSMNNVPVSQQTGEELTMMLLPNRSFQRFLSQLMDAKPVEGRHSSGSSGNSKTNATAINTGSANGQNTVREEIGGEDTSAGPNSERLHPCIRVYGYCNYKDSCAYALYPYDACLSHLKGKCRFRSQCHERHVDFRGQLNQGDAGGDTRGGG
UniProt Q388B1: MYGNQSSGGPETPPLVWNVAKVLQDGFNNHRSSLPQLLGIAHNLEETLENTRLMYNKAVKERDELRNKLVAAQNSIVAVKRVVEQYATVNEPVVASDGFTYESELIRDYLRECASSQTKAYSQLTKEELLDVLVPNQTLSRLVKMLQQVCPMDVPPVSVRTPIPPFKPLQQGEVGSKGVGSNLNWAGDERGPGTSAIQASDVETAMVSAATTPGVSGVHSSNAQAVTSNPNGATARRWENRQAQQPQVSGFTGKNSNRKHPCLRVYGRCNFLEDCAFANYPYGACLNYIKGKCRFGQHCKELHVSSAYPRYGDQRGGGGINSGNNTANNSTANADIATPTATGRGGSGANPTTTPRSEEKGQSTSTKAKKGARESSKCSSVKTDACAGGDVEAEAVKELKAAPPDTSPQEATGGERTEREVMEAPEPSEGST

According to publication PMC6648352:

Molecular target: ZC3H39^GFP (Trypanosoma brucei) (UniProt Q388B3)
Assay: co-IP; lysate of dual-tagged bloodstream form T. brucei (2 x 10^8 cells; 20 mM Tris-Cl pH 8.0, 400 mM NaCl, 1 mM EDTA, 0.5% NP-40, 10% glycerol, 1 mM DTT); IP with anti-GFP magnetic beads, at least 1 h at 4°C; blots with anti-GFP and anti-myc; control strain expressing only ZC3H40^myc

## ZC3H40^myc (from UniProt Q388B1)
  binding: binds

Results are given in words; binding and its absence hold for the method and conditions named. Binding seen in cells or lysates may run through a third protein. Binding calls can cover weak binding; strength is not graded here.
